# This is one part of the list.
# Chains of the proteins cited; added tags and fusions are not shown.
# UniProt Q0JBA9, entry or part of it: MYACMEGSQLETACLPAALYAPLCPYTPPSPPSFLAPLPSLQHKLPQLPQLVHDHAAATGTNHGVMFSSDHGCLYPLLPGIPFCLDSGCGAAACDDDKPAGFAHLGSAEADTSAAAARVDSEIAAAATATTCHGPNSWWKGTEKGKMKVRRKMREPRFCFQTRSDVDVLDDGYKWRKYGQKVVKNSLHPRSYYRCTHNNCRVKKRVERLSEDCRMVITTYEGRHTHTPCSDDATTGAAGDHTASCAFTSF
# Target: OsWRKY34 (Oryza sativa, UniProt Q0JBA9 1-250)
# Assay: protein-binding microarray (RPBM); PBS, 2% BSA, 51.3 ng/ul salmon testes DNA, 50 uM zinc acetate, 200 nM TF, 25 C, 1 h; high values mean tight binding
# Details: protein: recombinant; tags: N-terminal polyhistidine and DsRed monomer fusion (pET32a); label: CyDye5-dUTP incorporated in the synthesized complementary strand; 3' TTTTT single-stranded linker to array surface; dsDNA, one strand shown
# In short: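 For the binding signal, per-feature fluorescence intensity was read in arbitrary units on an Axon 4000B scanner. Before scanning, a 2% BSA-blocked custom Agilent array made double-stranded with Cy5-dUTP was washed after 1 h at 25 °C with 200 nM protein and 50 µM zinc acetate. The proteins were Ni–NTA-purified transcription factors with N-terminal polyhistidine and DsRed fusions, expressed in E. coli BL21-CodonPlus.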
row,Sequence,binding signal
1,ATCTGTTGGTAGATGGGCTGGGGATGATAGTTGCTCATCACGGAGTCACCTAGTGCAG,8420 fluorescence intensity (a.u.)
2,TGTGTTTGTGCGATGATCATCTTTCTGTTCATCCTCTTGTCGGAGTCACCTAGTGCAG,9400 fluorescence intensity (a.u.)
3,GTTTTGTGATCATTTATTTGGCTAATTTGCGATGCTTCACCGGAGTCACCTAGTGCAG,9130 fluorescence intensity (a.u.)
4,AGACGGAGGCCTGTTTTGTCCACTGCACACTTCACCATTCCGGAGTCACCTAGTGCAG,8650 fluorescence intensity (a.u.)
5,GACGACCTTGGCACCCAGCTTCCGTCACTCGCTCGCCGCGCGGAGTCACCTAGTGCAG,8720 fluorescence intensity (a.u.)
6,CGATCTCGTGTTCGTCGTCGTCGTTCTTGTCGATCTCTGTCGGAGTCACCTAGTGCAG,13200 fluorescence intensity (a.u.)
7,GCACTTATTTTCCCGCGCTACATGTTGTACGTACTCGGTTCGGAGTCACCTAGTGCAG,9590 fluorescence intensity (a.u.)
8,AATTTTTTTAATCCACATGACAACATTGTCTTGCTATGCCCGGAGTCACCTAGTGCAG,8390 fluorescence intensity (a.u.)
9,ATCGGTCTTTTATCTTTTCTGCCGATCGGTCTTTTGTCTTCGGAGTCACCTAGTGCAG,11000 fluorescence intensity (a.u.)
10,TCATCTGGCATCCGGCTGTCACGTTTTCCCGTTCGCTACACGGAGTCACCTAGTGCAG,8680 fluorescence intensity (a.u.)
11,GAGGTTGATAGTACCTTCATCTTGGATTTCTTGGCCTGCACGGAGTCACCTAGTGCAG,8760 fluorescence intensity (a.u.)
12,ATATTTCTCTACAGCTACTTTTCTTCGAACAAGAAATTATCGGAGTCACCTAGTGCAG,8170 fluorescence intensity (a.u.)
13,CAAGTTTGTTGGGCCTCGTCTCCGAATCTATCACGAATTTCGGAGTCACCTAGTGCAG,9230 fluorescence intensity (a.u.)
14,GAGGTAGGGAGAGGTTTCGTTAGGGTTTCGGGCGGGGATGCGGAGTCACCTAGTGCAG,19900 fluorescence intensity (a.u.)
15,ACTACTACCAGTCTATACCAGTGTTCTTCCACGTTGCTACCGGAGTCACCTAGTGCAG,8370 fluorescence intensity (a.u.)
16,CTTGGTTATCTTTAATATTACACTTTGATGGTTAACTTGTCGGAGTCACCTAGTGCAG,8480 fluorescence intensity (a.u.)
17,TCCATTGAACTGATATGCTACACTGCTGTCTCTAATAGTGCGGAGTCACCTAGTGCAG,8480 fluorescence intensity (a.u.)
18,TCTCCTCTAATTCTTGCGTTTTTCCTGTGATCCAATCAAACGGAGTCACCTAGTGCAG,8720 fluorescence intensity (a.u.)
19,CTTGGGTTGGGCGGGAACTTGGGGAGGAATTATGGACTATCGGAGTCACCTAGTGCAG,16800 fluorescence intensity (a.u.)
20,CTGTGTTTCAAAGGGATCTTAAGTGTACATTCTATATCATCGGAGTCACCTAGTGCAG,9450 fluorescence intensity (a.u.)
21,TTCCGGTGAAAATTTTGGCCTCTTTTTCGGAAGTTTTTTTCGGAGTCACCTAGTGCAG,9600 fluorescence intensity (a.u.)

# Another view of some results above.
row	Sequence	binding signal
2	TGTGTTTGTGCGATGATCATCTTTCTGTTCATCCTCTTGTCGGAGTCACCTAGTGCAG	9400 fluorescence intensity (a.u.)
4	AGACGGAGGCCTGTTTTGTCCACTGCACACTTCACCATTCCGGAGTCACCTAGTGCAG	8650 fluorescence intensity (a.u.)
5	GACGACCTTGGCACCCAGCTTCCGTCACTCGCTCGCCGCGCGGAGTCACCTAGTGCAG	8720 fluorescence intensity (a.u.)
9	ATCGGTCTTTTATCTTTTCTGCCGATCGGTCTTTTGTCTTCGGAGTCACCTAGTGCAG	11000 fluorescence intensity (a.u.)
10	TCATCTGGCATCCGGCTGTCACGTTTTCCCGTTCGCTACACGGAGTCACCTAGTGCAG	8680 fluorescence intensity (a.u.)

# (cont.)

row,Sequence,binding signal
1,TGATATTTCTGTTTATTTGATTTACATGATACACTAATTTCGGAGTCACCTAGTGCAG,8940 fluorescence intensity (a.u.)
2,CCTTTCCTAAGTCTCTGTTTTAACATCTCTATTGGGGCATCGGAGTCACCTAGTGCAG,8940 fluorescence intensity (a.u.)
3,TCCCCGATGATCTCGTACACCATGTCCTCTCGTTCTTGCCCGGAGTCACCTAGTGCAG,8160 fluorescence intensity (a.u.)
4,GGAAGCATCAACTTTGACTATTTTGGAAAATTCCCAGCCTCGGAGTCACCTAGTGCAG,8260 fluorescence intensity (a.u.)
5,TCCCGCTTTGACCCGCCTCCGTGTCACTCACTCCCGCCCGCGGAGTCACCTAGTGCAG,10200 fluorescence intensity (a.u.)
6,TTCCTTGAGTCTATCTCTCATGTGATTCCTGCATTTTTCCCGGAGTCACCTAGTGCAG,10700 fluorescence intensity (a.u.)
7,ATTTCCACCGTTTGGGTGTGGATGGGAGTGGGATATAGAACGGAGTCACCTAGTGCAG,11900 fluorescence intensity (a.u.)
8,TTTGATCCCTATTTGAGTTTCCGTTTCACTTTCCAGCACACGGAGTCACCTAGTGCAG,9320 fluorescence intensity (a.u.)
9,TCCCTCGCCGCCGCCACCGCTCGCCGCTCCTCTCTCGCCGCGGAGTCACCTAGTGCAG,9440 fluorescence intensity (a.u.)
10,CTTCTTGAGTTCTTGGAGGTCGAGGGGTGGGTCATCAATGCGGAGTCACCTAGTGCAG,11600 fluorescence intensity (a.u.)
11,GCCGTTAACCATGGTGTGGTGGTCGTCTTCTTCCTCAATACGGAGTCACCTAGTGCAG,8540 fluorescence intensity (a.u.)
12,ACTGGGCACTATTTCTTCTCTCACTCTCTCTCTCTCTCTCCGGAGTCACCTAGTGCAG,8550 fluorescence intensity (a.u.)
13,CGCTTTTTGAACGTGGCCAAATATCCATTTTCTCGTCAATCGGAGTCACCTAGTGCAG,9550 fluorescence intensity (a.u.)
14,TTTTCTGCACACTTTGTCCTCACTCGTGTACACCCGGGAACGGAGTCACCTAGTGCAG,9270 fluorescence intensity (a.u.)
15,TGGATCTCCGATTACCTCCCATACTTGGGCTATGATTTTCCGGAGTCACCTAGTGCAG,9230 fluorescence intensity (a.u.)
16,TCGGCGTCGCTCCTCCTCCAGCTACAGGACCACATCGCCACGGAGTCACCTAGTGCAG,8120 fluorescence intensity (a.u.)
17,ACTGTTATGTTTGTCCCTTCTGTTTCGGTCACTCCTGGCTCGGAGTCACCTAGTGCAG,10400 fluorescence intensity (a.u.)
18,CCGTCGCCGCCTGCTATATCTCTCCCTAGGATTTTGGAATCGGAGTCACCTAGTGCAG,10100 fluorescence intensity (a.u.)
19,AAATACATGTACATCTTCCTTGTTTGCTTCATACTAAGATCGGAGTCACCTAGTGCAG,11700 fluorescence intensity (a.u.)
20,TGCAGGGTGGGGAGGATAGAAGATGCAAGAGGGGTGTTTGCGGAGTCACCTAGTGCAG,9570 fluorescence intensity (a.u.)
21,CACCTCCACGTCCATCTCTCTCTCTCTCTCCTCTCTCCTCCGGAGTCACCTAGTGCAG,10400 fluorescence intensity (a.u.)

row,Sequence,binding signal
1,GCCGGGAGGGAGGGAGGGAGGGAGGGAGGGAGACCCCGCACGGAGTCACCTAGTGCAG,15000 fluorescence intensity (a.u.)
2,TATATTGGATCCACTATCATAACATGATTGTTTTCTCTCACGGAGTCACCTAGTGCAG,8090 fluorescence intensity (a.u.)
3,CAAGCATTCTCTTCGGTGTACCTTTTCCTTTTGTATCTCCCGGAGTCACCTAGTGCAG,11500 fluorescence intensity (a.u.)
4,GCTTCTTTCCTCTTTCGCTCCCCACACCCTTCTTTTGTCGCGGAGTCACCTAGTGCAG,10800 fluorescence intensity (a.u.)
5,ACACAAATTTCCAACTTTTCCGTCACATCGTTCCAATTTCCGGAGTCACCTAGTGCAG,10500 fluorescence intensity (a.u.)
6,ATTTTTTTTAAAAGTAGTTCTTCTGTTTCATATTATAATACGGAGTCACCTAGTGCAG,9230 fluorescence intensity (a.u.)
7,CTCACACTACACCCACTCATCCACAGCGATCAACCGCATTCGGAGTCACCTAGTGCAG,8840 fluorescence intensity (a.u.)
8,CATCGCACTTTTATTATTGTTCAATTCATTGATAACTCATCGGAGTCACCTAGTGCAG,9760 fluorescence intensity (a.u.)
9,CGGCACTCGCAGGCTCGCAGCGCATGGTAACCATCTTTTACGGAGTCACCTAGTGCAG,8240 fluorescence intensity (a.u.)
10,AGTATATGATATATGTCACGTATGTCTCTGTGATCGATCACGGAGTCACCTAGTGCAG,9030 fluorescence intensity (a.u.)
11,AATCAAAATTTAAGCCTTTGTAGCTCGAGTATCACTTTTACGGAGTCACCTAGTGCAG,8490 fluorescence intensity (a.u.)
12,TTCTTAACATGTCAGTAGTACATTAGTCATATAATCTATACGGAGTCACCTAGTGCAG,9720 fluorescence intensity (a.u.)
13,CCCCTTTGTTTTGCTGAAGAATTGCTTGTACAGAACTGCTCGGAGTCACCTAGTGCAG,8480 fluorescence intensity (a.u.)
14,AAGACGGGGCCAGATTGTTATTTTGTATCCCTCATCTCAACGGAGTCACCTAGTGCAG,9250 fluorescence intensity (a.u.)
15,GAGATGTGTCCATATTTGTAGTATTGGGTGGTATCTATTTCGGAGTCACCTAGTGCAG,8550 fluorescence intensity (a.u.)
16,CTCCAAGTCCTCGTCTTGGTTGTCGCAATCATTCGTGGGGCGGAGTCACCTAGTGCAG,9700 fluorescence intensity (a.u.)
17,TTCTATTGGTTGCATGTATTGTATTAATTGGGGTGATTCACGGAGTCACCTAGTGCAG,8880 fluorescence intensity (a.u.)
18,TTTATTTGGTTTCGTATCGCCATCGCTGCTTTATTGTGTGCGGAGTCACCTAGTGCAG,9110 fluorescence intensity (a.u.)
19,TCTCGTCTCATCTGGATTGGAATTTTCTCTTCTCTTTAATCGGAGTCACCTAGTGCAG,9260 fluorescence intensity (a.u.)
20,ATATGCGATAACTATTTTCAGTTTAACTTGTTATTTTTTGCGGAGTCACCTAGTGCAG,8720 fluorescence intensity (a.u.)
21,GAAAGTTGACTCTGTGCGATTTCTTCTTCTTCGTGTTGTTCGGAGTCACCTAGTGCAG,13900 fluorescence intensity (a.u.)

row,Sequence,binding signal
1,GCCACTGCCACTGCCACCGGTCACACTCGTCAGGCACTCACGGAGTCACCTAGTGCAG,8610 fluorescence intensity (a.u.)
2,CCATCTCTCCCAAGCTTCTTCCTTCTAATCCTTGCTGACACGGAGTCACCTAGTGCAG,8620 fluorescence intensity (a.u.)
3,GCCTCTTCATTTTTTTTTCCTCAACTCATCATATTCATACCGGAGTCACCTAGTGCAG,10300 fluorescence intensity (a.u.)
4,TTTCCTACTCTTTGCACTTACATTTGTAGTTTTATGTTTACGGAGTCACCTAGTGCAG,10100 fluorescence intensity (a.u.)
5,CAACTTTAAATCTCTCTTAGTTGCTCTTGGTCATTTTTATCGGAGTCACCTAGTGCAG,9810 fluorescence intensity (a.u.)
6,ACACCACCTGCTCCTGCCGCCAAACAACCAGCCATGCTCACGGAGTCACCTAGTGCAG,9180 fluorescence intensity (a.u.)
7,ACATACTCAAAAGATATATTTTGAAATCCTTGTCATTGTACGGAGTCACCTAGTGCAG,8150 fluorescence intensity (a.u.)
8,AGCCCACTTGTGTCCTGCCACGTGTGTTATATCCTGAATACGGAGTCACCTAGTGCAG,10000 fluorescence intensity (a.u.)
9,GGCGGTGGGTGGGTGGAGCCGTGGAGGGATGGAGGGAGGGCGGAGTCACCTAGTGCAG,37900 fluorescence intensity (a.u.)
10,TATCCCTCTCTCTCTCTCACACACATCTCTTTTTGCAAGACGGAGTCACCTAGTGCAG,8570 fluorescence intensity (a.u.)
11,GTTCTTCTCTTCTGCATTTTGCCTGGAGTTCATGGCTAATCGGAGTCACCTAGTGCAG,8550 fluorescence intensity (a.u.)
12,TTGTCAACCGTGAGAATTGCTACCTGCTGCTTACTCCCACCGGAGTCACCTAGTGCAG,8410 fluorescence intensity (a.u.)
13,GATTCTTCTTATTGCTTTTTGGGTAGTTTCACCTTTTTCACGGAGTCACCTAGTGCAG,10700 fluorescence intensity (a.u.)
14,CTACTCCACTTACATGGTTTTCTCCTATACCGACCGCAACCGGAGTCACCTAGTGCAG,9070 fluorescence intensity (a.u.)
15,AAACTTCCAACTTTTCCATCACATCAAAGCTTTCTTACTCCGGAGTCACCTAGTGCAG,8030 fluorescence intensity (a.u.)
16,TGCAACACTAAACACATGGGCCCACATGTCAGTCTGCCGCCGGAGTCACCTAGTGCAG,8240 fluorescence intensity (a.u.)
17,CTCACGTGCGCGCCACCACCACCCCATGCAGACCCAGCAGCGGAGTCACCTAGTGCAG,8480 fluorescence intensity (a.u.)
18,CTTCTCCATAGCTCACGCTCCTTCACGCACACGCCTCGCTCGGAGTCACCTAGTGCAG,8970 fluorescence intensity (a.u.)
19,CGTGATGAATCTTGGCATGCGTCTATTAGCTGTGCCCACGCGGAGTCACCTAGTGCAG,8780 fluorescence intensity (a.u.)
20,TCCGCCGCCTCGCTCGCTCGCTCGCCGTCCGCCGCCTCGCCGGAGTCACCTAGTGCAG,8640 fluorescence intensity (a.u.)
21,ACCCTCCCCACTCTGCCCTACTTTCTCTCTCTACACCCATCGGAGTCACCTAGTGCAG,8350 fluorescence intensity (a.u.)

# Reference: article PMC7819943, “Rice protein-binding microarrays: a tool to detect cis-acting elements near promoter regions in rice”
